# Screen size: about 31,000 sequences; about 1,400 (4.5%) were called active.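 The calls were made as follows: active = median seed-adjusted z-score above 1 or below -1; inactive = the rest.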 This is one part of the list.
# Test: Novel Modifiers of Survival Motor Neuron (SMN) Protein: Gene Identification via Genome-wide siRNA Screen;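 also: luminescence tracks full-length SMN protein made from the SMN2 reporter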
# Conditions: HEK293T SMN2-luciferase reporter, siRNA knockdown, 72 h; actives lie on both sides
# How it was run: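 HEK293T cells stably carrying an SMN2 promoter/splicing cassette–luciferase reporter were reverse-transfected with 1 pmol siRNA per well (druggable-genome library, 3 siRNAs per gene) and grown 72 h at 37 °C. Luminescence, normalized to negative-control siRNA and log10-transformed, was scored as MAD.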
row,Sequence,median seed-adjusted z-score
1,GCCCUUUGAUUGCGAGGAATT against ZNF275,inactive: 0.315
2,GCAGCCUUGUCACUUAUGATT against DCTN2,inactive: 0.339
3,GUUCAGUUGCAAAAAGAAATT against NOVA1,inactive: -0.486
4,GGUGAACCGUCAGACAGUATT against BAP1,inactive: -0.374
5,CAAUUCUUAUUGACUCAUATT against IFNA1,inactive: -0.625
6,GGCUGUGGUAGAUAUCUAUTT against TADA2L,inactive: 0.0455
7,GGUAGAGACUAUCCCAACATT against UPP1,inactive: -0.135
8,CGAGGUUUUGAUAAAGAUATT against EFCAB1,inactive: -0.719
9,GGAGAUUCAUUCUAACCAUTT against ADAMTS19,inactive: -0.39
10,GAAGACACCUUCAAACUCATT against KCNIP3,inactive: 0.283
11,CAUUAAACCCGACAACUUCTT against KALRN,inactive: 0.305
12,GGAUCACAAAUAGAAUUCATT against C4BPA,inactive: 0.309
13,CCCAGAGCUUCAAAGUGUATT against HSD17B1,inactive: -0.569
14,GACUGUGAGACUUACCAUATT against MED20,active: -1.66
15,GCCUUGAUCAUCAUGCUAATT against LIN28B,inactive: 0.407
16,GGUUCGAGGUAAACCCUAATT against CTPS2,active: 1.08
17,GGCCGACUGUGAUAAGAUATT against ZNF438,inactive: 0.165
18,GCAUAUUUGUGCUAGUGAUTT against ARL6,inactive: 0.442
19,GUACUGUCAGAAAACCGAATT against DOCK9,inactive: 0.61
20,GGACAGAAAUCCUAGAUUATT against RND1,inactive: -0.393
21,GGUGCUAUAUGUUCCGCAUTT against MLL4,inactive: -0.259
22,AGUUCAUGAUUACAAAGAATT against RABL3,inactive: 0.843

# Part of the list above, as tab-separated lines:
row	Sequence	median seed-adjusted z-score
4	GGUGAACCGUCAGACAGUATT against BAP1	inactive: -0.374
10	GAAGACACCUUCAAACUCATT against KCNIP3	inactive: 0.283
16	GGUUCGAGGUAAACCCUAATT against CTPS2	active: 1.08

# Quoted at random: 3 records from the list
row,Sequence,median seed-adjusted z-score
7,GGUAGAGACUAUCCCAACATT against UPP1,inactive: -0.135
17,GGCCGACUGUGAUAAGAUATT against ZNF438,inactive: 0.165
12,GGAUCACAAAUAGAAUUCATT against C4BPA,inactive: 0.309

# (continued)

row,Sequence,median seed-adjusted z-score
1,CUAAAAAUCUCGAAAACCATT against ZDHHC2,inactive: 0.133
2,CAGAAGGAGUGGAAAGAGATT against NMNAT1,inactive: 0.22
3,GUGGAUCCACGAUACCUCGTT against TIMM23,inactive: 0.899
4,AGUGAAACUUUAGACUUCATT against KCNV1,inactive: 0.109
5,CGAAAGGAAACCUAACGAATT against HIVEP2,inactive: 0.294
6,AGACAAGAGUGAUUACAAUTT against TLE2,inactive: 0.00566
7,GCAAUCACAUUUAUGCAUATT against CASP6,inactive: 0.765
8,CAACUAUCCCGAUAUGGAATT against KLF12,inactive: -0.0892
9,GAAUCCUGUGGACACCUAUTT against TNXB,inactive: -0.0996
10,GGAGGGUCUUCAUCGCUGATT against POLR2C,active: -2.95
11,CUGUUACAUUUGAUUGGAATT against GFM2,inactive: 0.26
12,GGAUCAACUUGAACGAAUATT against PFTK1,inactive: 0.088
13,CUUCAUGCCUAAAUACCUATT against SLCO1A2,inactive: -0.2
14,ACAUUGAAGUGAAGGGUUATT against BTN3A3,inactive: 0.886
15,CGACAUCAACAUGAACGAUTT against PCSK2,inactive: -0.704
16,GCUGUUGAGUGGAACAAGATT against BZW2,inactive: 0.0649
17,CUCUCUCUGCAACACCUUUTT against SLC39A3,inactive: 0.0298
18,GCCGAGCUGUGAAGAAUGUTT against PAPLN,inactive: -0.186
19,GGAUAUUGCUGUGGACGCATT against CREBBP,inactive: 0
20,CGAAAGCUGCAGACCACCATT against GPR88,inactive: 0.404
21,GGUUACUUUCCGCACCAGATT against UBE2E3,inactive: -0.0585
22,GGUCUGUUGUUUUCCGAAATT against ATP6AP2,inactive: -0.705

# Part of the list above, tab-delimited.
row	Sequence	median seed-adjusted z-score
2	CAGAAGGAGUGGAAAGAGATT against NMNAT1	inactive: 0.22
3	GUGGAUCCACGAUACCUCGTT against TIMM23	inactive: 0.899

# Next part:

row,Sequence,median seed-adjusted z-score
1,GAAGAGAUCAAGUAAUUAUTT against TTRAP,inactive: -0.33
2,GCGUCUUGGUGAUUGGUCUTT against FMO4,inactive: -0.359
3,CGAUCGAACAGAAGAAGAATT against ICMT,inactive: -0.0602
4,GGACAUCUAUGUUAUAUGUTT against TRIM65,inactive: -0.599
5,CCUCAAGGAUUACACGAAATT against TSEN2,inactive: 0
6,GCUAUAAGCCGAUAGUAGATT against 11-Sep,inactive: -0.245
7,AGAUCCUAGAGCUCCUAUATT against CSTF2T,inactive: 0.387
8,UGAUGUAUUUGACCACCAATT against MPP2,inactive: 0.0496
9,GGUGGAAACUGGUAUCCGATT against NAALAD2,inactive: -0.00068
10,CCAGAAACCUGCACGACAATT against OPLAH,inactive: -0.233
11,GUAUCAGGGUGUCCGCAAATT against GZF1,inactive: 0.286
12,AGUGGACCCUGAUAAACCATT against MTHFSD,inactive: -0.298
13,CAACACGUCUGACUUCUCUTT against ZFPL1,inactive: -0.072
14,GCUGGAUUUCGAACACGAATT against KIF27,inactive: 0.412
15,GAAGGUGAAUGUACCCUAATT against RHOG,inactive: -0.354
16,UGGAAUAAGUGGGCUCUGATT against ADM,inactive: 0.65
17,GGAUGAUGUACUUCUCUCATT against MLNR,inactive: -0.038
18,CAAUCUCUCUUAUCCUUGATT against RORC,inactive: -0.243
19,GGCAAUGCGUUGGUUUGUATT against FN1,inactive: -0.312
20,CGUACCAAUCUCAAAAAUATT against LILRB1,inactive: 0.539
21,GCCUGACCCUUGUACACUATT against TSPAN17,inactive: -0.0774
22,CAACGAUAGCACAAAAUGUTT against SLC17A3,inactive: -0.296

row,Sequence,median seed-adjusted z-score
1,GACCUUGAAUGUUCAACAUTT against ZNF470,active: -1.26
2,GAAUUUCUAUGACCAAAUUTT against KDELR3,inactive: 0.476
3,GUAUCAAUCUAGAGCACAATT against MYOZ2,inactive: 0.315
4,CAACAAGUGUCACGGCAUATT against ZMYM6,inactive: -0.355
5,GGAACAGCACAGAACAGCATT against ARID5A,inactive: 0.0642
6,CCAGGGAAAUAUCAGCCUUTT against APRT,inactive: 0.0278
7,GAACUGAGAGUGAUUGAGATT against IL8,inactive: 0.0521
8,CCUCUAUACCAAGCCCUAATT against ST18,inactive: 0.0762
9,GCCUCUCAAUGAGUAUCGATT against AIFM2,inactive: -0.106
10,GAUGAGGUCUUAGAUGCAATT against USP30,inactive: -0.646
11,GGCUCGCUUUGAAAAGCUATT against LIN7A,active: -1.39
12,AGGGCACCUCAGAAACAGATT against CD40,inactive: 0.275
13,GAACGAGUGAAAUACGAGATT against DNAH5,inactive: -0.45
14,GAACCAAGAUCAUUAUGCATT against DNAJC2,inactive: -0.0357
15,UGACAUCCGUAAGGACUUATT against ACTG2,inactive: 0.157
16,GAGCAAUGCUGACUAUCAATT against CNOT7,inactive: 0.716
17,GACUGAAUGUUUAUACAGUTT against OSBPL1A,inactive: 0.0845
18,GGAUACGAGGUGGACAAAATT against CHIT1,inactive: -0.578
19,GAGUCGAAAGGACAAAGAATT against MLLT6,inactive: -0.281
20,CACUAGCAGUUGCAAGUAATT against RAB3GAP2,inactive: 0.0583
21,CCCUCAACCUCCACAACAATT against PODNL1,inactive: -0.448
22,CCAACAAGAUGCUAGAGCATT against CBFA2T2,inactive: -0.201

row,Sequence,median seed-adjusted z-score
1,AAACUAAUCUUAACCCUGUTT against GJB1,inactive: 0.152
2,GACUUUUGGACCAACCUAATT against FARP2,inactive: -0.0358
3,GAGUGGACUGUGGAAGAUATT against RCOR1,active: -1.13
4,AGAUGAACCUCUACUAUGATT against FOXI1,inactive: -0.217
5,GAAGAAUACGUACACCGAATT against DDX43,inactive: -0.452
6,GGGUUUGGAGGCCGAAAUATT against CCDC88B,inactive: -0.153
7,CUACAUAGGUGUCUCCAAATT against SERPINA12,inactive: -0.382
8,GGAUGAUCCACUCACAAAUTT against ACTN1,inactive: 0
9,UUACCAUCGUGAAGAGAAATT against CLEC5A,active: -1.07
10,AAUCGAAGGAUGAAGAUGATT against HOXC9,inactive: 0.395
11,CAGGAGUCGUUGGAAGUUATT against PDE4A,inactive: -0.147
12,GGUCCCUCCUUACUCAACATT against HSPB8,inactive: 0.207
13,GCUCUUUACUUGUAGUAAUTT against GPR137C,inactive: -0.405
14,CAGUCACCGUGAAAAAGGATT against TCF7L1,inactive: -0.251
15,GGCUUCAACUUGGAGCUCUTT against GAD1,inactive: 0.101
16,GGGUGAAUGCUAUUGAGUUTT against MKRN1,inactive: -0.496
17,CUGCAGACUUGAAACAGUUTT against GNG5,inactive: -0.215
18,GAGCUUCACUGUUACUAAATT against KRT6A,inactive: -0.146
19,CGUCUUUCCUUGUCUAUCUTT against KCNQ5,inactive: 0.0191

# Source: PubChem BioAssay AID1347426 (Functional Genomics Laboratory (NCATS/FGL), 2020)
